From the supplement of paper PMC8728848
The other results are listed elsewhere or left out.

Legend:
Experiment in all cases: glycan array binding signal (z-score within array); higher = stronger binding
Settings in all cases: glycan notation: IUPAC condensed, linker removed
[1] = molecular target: Gal(b1-4)GlcNAc(b1-3)[Gal(b1-4)GlcNAc(b1-6)]GalNAc
Summary of the method: (§1)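 Negative Z-scores can be read as non-binding. The Z-score is calculated within each array and then averaged across arrays of one protein sequence at different concentrations or buffers and across linkers. Arrays, 3228 in all, were curated from the Consortium for Functional Glycomics database and kept only where the protein sequence was available.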

[2] = molecular target: Gal(b1-4)GlcNAc(b1-3)[GlcNAc(b1-6)]Gal(b1-4)GlcNAc
Summary of the method: as §1

[3] = molecular target: Gal(b1-4)GlcNAc(b1-6)Gal(b1-4)GlcNAc
Summary of the method: as §1

[4] = molecular target: Gal(b1-4)GlcNAc(b1-6)GalNAc
Summary of the method: as §1

[5] = molecular target: Gal(b1-4)GlcNAc(b1-6)[Gal(b1-3)]GalNAc
Summary of the method: as §1

Gal(b1-6)Gal = molecular target: Gal(b1-6)Gal
Summary of the method: as §1

Gal3S(b1-3)GalNAc = molecular target: Gal3S(b1-3)GalNAc
Summary of the method: as §1

Gal3S(b1-3)GlcNAc = molecular target: Gal3S(b1-3)GlcNAc
Summary of the method: as §1

[6] = molecular target: Gal3S(b1-3)[Fuc(a1-4)]GlcNAc
Summary of the method: as §1

Gal3S(b1-4)Glc = molecular target: Gal3S(b1-4)Glc
Summary of the method: as §1

Gal3S(b1-4)Glc6S = molecular target: Gal3S(b1-4)Glc6S
Summary of the method: as §1

Gal3S(b1-4)GlcNAc = molecular target: Gal3S(b1-4)GlcNAc
Summary of the method: as §1

Gal3S(b1-4)GlcNAc6S = molecular target: Gal3S(b1-4)GlcNAc6S
Summary of the method: as §1

[7] = molecular target: Gal3S(b1-4)[Fuc(a1-3)]Glc
Summary of the method: as §1

[8] = molecular target: Gal3S(b1-4)[Fuc(a1-3)]Glc6S
Summary of the method: as §1

Gal3S4S(b1-4)GlcNAc = molecular target: Gal3S4S(b1-4)GlcNAc
Summary of the method: as §1

Gal3S6S(b1-4)GlcNAc = molecular target: Gal3S6S(b1-4)GlcNAc
Summary of the method: as §1

Gal3S6S(b1-4)GlcNAc6S = molecular target: Gal3S6S(b1-4)GlcNAc6S
Summary of the method: as §1

Gal4S(b1-4)GlcNAc = molecular target: Gal4S(b1-4)GlcNAc
Summary of the method: as §1

Gal4S6S(b1-4)GlcNAc = molecular target: Gal4S6S(b1-4)GlcNAc
Summary of the method: as §1

Gal6S(b1-3)GlcNAc = molecular target: Gal6S(b1-3)GlcNAc
Summary of the method: as §1

Gal6S(b1-3)GlcNAc6S = molecular target: Gal6S(b1-3)GlcNAc6S
Summary of the method: as §1

Gal6S(b1-4)Glc = molecular target: Gal6S(b1-4)Glc
Summary of the method: as §1

Gal6S(b1-4)Glc6S = molecular target: Gal6S(b1-4)Glc6S
Summary of the method: as §1

Gal6S(b1-4)GlcNAc = molecular target: Gal6S(b1-4)GlcNAc
Summary of the method: as §1

Gal6S(b1-4)GlcNAc6S = molecular target: Gal6S(b1-4)GlcNAc6S
Summary of the method: as §1

GalNAc(a1-3)Gal = molecular target: GalNAc(a1-3)Gal
Summary of the method: as §1

GalNAc(a1-3)GalNAc = molecular target: GalNAc(a1-3)GalNAc
Summary of the method: as §1

[9] = molecular target: GalNAc(a1-3)GalNAc(b1-3)Gal(a1-4)Gal(b1-4)Glc
Summary of the method: as §1

[10] = molecular target: GalNAc(a1-3)GalNAc(b1-3)Gal(a1-4)Gal(b1-4)GlcNAc
Summary of the method: as §1

GalNAc(b1-3)Gal = molecular target: GalNAc(b1-3)Gal
Summary of the method: as §1

[11] = molecular target: GalNAc(b1-3)Gal(a1-4)Gal(b1-4)GlcNAc
Summary of the method: as §1

[12] = molecular target: GalNAc(b1-3)Gal(a1-4)Gal(b1-4)GlcNAc(b1-3)Gal(b1-4)Glc
Summary of the method: as §1

[13] = molecular target: GalNAc(b1-3)Gal(a1-6)Gal(b1-4)Glc
Summary of the method: as §1

GalNAc(b1-3)GalNAc = molecular target: GalNAc(b1-3)GalNAc
Summary of the method: as §1

GalNAc(b1-4)Gal(b1-4)Glc = molecular target: GalNAc(b1-4)Gal(b1-4)Glc
Summary of the method: as §1

GalNAc(b1-4)GlcNAc = molecular target: GalNAc(b1-4)GlcNAc
Summary of the method: as §1

[14] = molecular target: GalNAc(b1-4)GlcNAc(b1-2)Man(a1-3)[GalNAc(b1-4)GlcNAc(b1-2)Man(a1-6)]Man(b1-4)GlcNAc(b1-4)GlcNAc
Summary of the method: as §1

B1: PGP3 (Chlamydia trachomatis), P0CE18 (protein)
chain: MGNSGFYLYNTQNCVFADNIKVGQMTEPLKDQQIILGTTSTPVAAKMTASDGISLTVSNNPSTNASITIGLDAEKAYQLILEKLGDQILGGIADTIVDSTVQDILDKITTDPSLGLLKAFNNFPITNKIQCNGLFTPRNIETLLGGTEIGKFTVTPKSSGSMFLVSADIIASRMEGGVVLALVREGDSKPYAISYGYSSGVPNLCSLRTRIINTGLTPTTYSLRVGGLESGVVWVNALSNGNDILGITNTSNVSFLEVIPQTNA
glycan array binding signal (z-score) [1]: -0.523
glycan array binding signal (z-score) [2]: -1.03
glycan array binding signal (z-score) [3]: -0.881
glycan array binding signal (z-score) [4]: -1.12
glycan array binding signal (z-score) [5]: -0.461
glycan array binding signal (z-score) (Gal(b1-6)Gal): 0.036
glycan array binding signal (z-score) (Gal3S(b1-3)GalNAc): -0.343
glycan array binding signal (z-score) (Gal3S(b1-3)GlcNAc): 0.438
glycan array binding signal (z-score) [6]: -0.174
glycan array binding signal (z-score) (Gal3S(b1-4)Glc): -0.636
glycan array binding signal (z-score) (Gal3S(b1-4)Glc6S): -0.222
glycan array binding signal (z-score) (Gal3S(b1-4)GlcNAc): -0.219
glycan array binding signal (z-score) (Gal3S(b1-4)GlcNAc6S): -0.312
glycan array binding signal (z-score) [7]: 1.69
glycan array binding signal (z-score) [8]: -1.96
glycan array binding signal (z-score) (Gal3S4S(b1-4)GlcNAc): 0.096
glycan array binding signal (z-score) (Gal3S6S(b1-4)GlcNAc): -1.04
glycan array binding signal (z-score) (Gal3S6S(b1-4)GlcNAc6S): -1.31
glycan array binding signal (z-score) (Gal4S(b1-4)GlcNAc): -0.79
glycan array binding signal (z-score) (Gal4S6S(b1-4)GlcNAc): 1.01
glycan array binding signal (z-score) (Gal6S(b1-3)GlcNAc): -0.786
glycan array binding signal (z-score) (Gal6S(b1-3)GlcNAc6S): 0.068
glycan array binding signal (z-score) (Gal6S(b1-4)Glc): 0.677
glycan array binding signal (z-score) (Gal6S(b1-4)Glc6S): 1.35
glycan array binding signal (z-score) (Gal6S(b1-4)GlcNAc): -1.44
glycan array binding signal (z-score) (Gal6S(b1-4)GlcNAc6S): -0.202
glycan array binding signal (z-score) (GalNAc(a1-3)Gal): 0.576
glycan array binding signal (z-score) (GalNAc(a1-3)GalNAc): -0.476
glycan array binding signal (z-score) [9]: 1.04
glycan array binding signal (z-score) [10]: 0.732
glycan array binding signal (z-score) (GalNAc(b1-3)Gal): 0.914
glycan array binding signal (z-score) [11]: 1.66
glycan array binding signal (z-score) [12]: 1.09
glycan array binding signal (z-score) [13]: 2.89
glycan array binding signal (z-score) (GalNAc(b1-3)GalNAc): -0.361
glycan array binding signal (z-score) (GalNAc(b1-4)Gal(b1-4)Glc): -0.491
glycan array binding signal (z-score) (GalNAc(b1-4)GlcNAc): -0.87
glycan array binding signal (z-score) [14]: -0.407
